Some of the results follow.
Tests used:
Assay in all cases: log2 fold change, soluble protein after heating vs DMSO (PISA); higher = thermal stabilisation; K562 cells, 10 uM, 30 min; active = over 0.2 and 3.5 SD of the protein, either way, in both replicates (recomputed)
[1] = compound: C1=CC=C(C=C1)[C@H](COC2=CC3=C(C=C2)NC(=O)N3)NC(=O)C4=CC=CN(C4=O)CC5=CC(=C(C=C5)F)F
Method in brief: (§1)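 Quantification of soluble protein used TMTpro 16plex LC-MS/MS, with channel sums equalised. Samples were the supernatant after 21,000xg for 90 min of pooled aliquots from K562 cells (2×10^6 cells/mL) treated with 10 μM compound for 30 min, heated for 3 min over 48°C-58°C, and extracted in PBS with 0.5% NP-40 at 4°C. Values, from duplicates, describe thermal stability against control samples on a log2 fold-change scale.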

Protein sequences, listed by entry. Tags and fused reporters are not part of them. Lines headed by an entry give the natural chain unless they say otherwise; changes in a name come on top.
UniProt Q16576, whole entry, looked up: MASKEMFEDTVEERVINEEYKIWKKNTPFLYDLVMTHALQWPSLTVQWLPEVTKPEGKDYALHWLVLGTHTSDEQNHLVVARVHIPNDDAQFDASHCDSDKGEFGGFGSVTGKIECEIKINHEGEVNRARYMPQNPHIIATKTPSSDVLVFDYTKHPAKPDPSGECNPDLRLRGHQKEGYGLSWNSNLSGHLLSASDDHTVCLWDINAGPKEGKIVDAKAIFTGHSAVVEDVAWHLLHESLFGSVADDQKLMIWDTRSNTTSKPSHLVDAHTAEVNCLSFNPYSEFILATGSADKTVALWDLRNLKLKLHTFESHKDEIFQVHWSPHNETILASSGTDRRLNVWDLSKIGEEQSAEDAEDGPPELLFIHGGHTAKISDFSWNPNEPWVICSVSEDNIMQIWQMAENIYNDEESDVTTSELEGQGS
UniProt Q86YS6: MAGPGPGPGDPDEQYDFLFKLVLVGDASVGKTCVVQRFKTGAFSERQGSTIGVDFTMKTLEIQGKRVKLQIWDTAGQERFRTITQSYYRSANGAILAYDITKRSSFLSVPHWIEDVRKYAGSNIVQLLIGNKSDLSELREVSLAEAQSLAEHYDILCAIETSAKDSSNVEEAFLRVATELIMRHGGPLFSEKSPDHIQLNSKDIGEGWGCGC
UniProt O14966: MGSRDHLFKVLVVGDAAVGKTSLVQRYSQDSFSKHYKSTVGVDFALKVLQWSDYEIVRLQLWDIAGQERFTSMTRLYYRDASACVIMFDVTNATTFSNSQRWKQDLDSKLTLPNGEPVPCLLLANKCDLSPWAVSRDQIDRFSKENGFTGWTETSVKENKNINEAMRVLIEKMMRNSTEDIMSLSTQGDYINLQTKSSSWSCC
UniProt P47224: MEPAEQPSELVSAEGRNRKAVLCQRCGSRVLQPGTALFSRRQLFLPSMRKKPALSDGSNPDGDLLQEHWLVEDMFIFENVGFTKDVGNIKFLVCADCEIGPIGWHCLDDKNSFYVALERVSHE
UniProt Q8WUD1: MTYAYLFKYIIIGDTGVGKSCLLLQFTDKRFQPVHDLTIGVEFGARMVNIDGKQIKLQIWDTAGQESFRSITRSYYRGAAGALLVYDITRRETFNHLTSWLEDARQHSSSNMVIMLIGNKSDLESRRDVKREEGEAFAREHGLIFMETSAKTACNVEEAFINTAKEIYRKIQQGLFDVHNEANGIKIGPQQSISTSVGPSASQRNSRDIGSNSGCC
UniProt O75771: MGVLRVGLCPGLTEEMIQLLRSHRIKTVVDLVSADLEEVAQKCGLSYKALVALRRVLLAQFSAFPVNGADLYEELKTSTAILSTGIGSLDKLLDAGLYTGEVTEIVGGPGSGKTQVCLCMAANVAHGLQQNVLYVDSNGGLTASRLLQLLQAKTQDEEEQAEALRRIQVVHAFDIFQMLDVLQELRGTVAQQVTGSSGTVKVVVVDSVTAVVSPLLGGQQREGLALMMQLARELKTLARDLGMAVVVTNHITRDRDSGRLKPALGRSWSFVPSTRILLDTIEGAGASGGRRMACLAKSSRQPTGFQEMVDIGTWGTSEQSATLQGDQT
UniProt O60216: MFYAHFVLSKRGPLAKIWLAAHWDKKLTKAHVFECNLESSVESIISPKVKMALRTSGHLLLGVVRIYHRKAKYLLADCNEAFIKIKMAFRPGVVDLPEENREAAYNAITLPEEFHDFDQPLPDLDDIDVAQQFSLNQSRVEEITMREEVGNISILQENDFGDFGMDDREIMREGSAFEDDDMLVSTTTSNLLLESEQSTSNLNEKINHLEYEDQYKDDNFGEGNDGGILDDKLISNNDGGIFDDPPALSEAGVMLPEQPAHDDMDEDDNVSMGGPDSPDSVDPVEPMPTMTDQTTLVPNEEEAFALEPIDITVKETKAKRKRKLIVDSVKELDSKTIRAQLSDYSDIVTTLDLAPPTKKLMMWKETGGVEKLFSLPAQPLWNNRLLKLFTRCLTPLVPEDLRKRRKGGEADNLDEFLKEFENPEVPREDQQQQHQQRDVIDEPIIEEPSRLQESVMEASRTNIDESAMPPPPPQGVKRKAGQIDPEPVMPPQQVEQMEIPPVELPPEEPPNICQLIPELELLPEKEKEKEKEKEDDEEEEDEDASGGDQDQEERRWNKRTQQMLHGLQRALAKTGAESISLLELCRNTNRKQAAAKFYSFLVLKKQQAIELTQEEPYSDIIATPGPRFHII
UniProt Q9H0U4: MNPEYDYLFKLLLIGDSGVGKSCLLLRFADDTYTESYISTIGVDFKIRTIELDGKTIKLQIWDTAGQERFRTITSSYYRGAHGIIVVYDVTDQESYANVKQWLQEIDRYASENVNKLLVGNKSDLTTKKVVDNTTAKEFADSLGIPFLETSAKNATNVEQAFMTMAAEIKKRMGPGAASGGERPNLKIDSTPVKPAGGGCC
UniProt P61106, whole entry, looked up: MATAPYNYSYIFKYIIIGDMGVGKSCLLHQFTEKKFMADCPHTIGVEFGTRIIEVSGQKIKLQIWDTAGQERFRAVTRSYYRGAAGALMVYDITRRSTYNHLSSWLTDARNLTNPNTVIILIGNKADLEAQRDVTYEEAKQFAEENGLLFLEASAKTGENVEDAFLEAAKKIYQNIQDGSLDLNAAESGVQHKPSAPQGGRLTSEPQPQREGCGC
UniProt P78406: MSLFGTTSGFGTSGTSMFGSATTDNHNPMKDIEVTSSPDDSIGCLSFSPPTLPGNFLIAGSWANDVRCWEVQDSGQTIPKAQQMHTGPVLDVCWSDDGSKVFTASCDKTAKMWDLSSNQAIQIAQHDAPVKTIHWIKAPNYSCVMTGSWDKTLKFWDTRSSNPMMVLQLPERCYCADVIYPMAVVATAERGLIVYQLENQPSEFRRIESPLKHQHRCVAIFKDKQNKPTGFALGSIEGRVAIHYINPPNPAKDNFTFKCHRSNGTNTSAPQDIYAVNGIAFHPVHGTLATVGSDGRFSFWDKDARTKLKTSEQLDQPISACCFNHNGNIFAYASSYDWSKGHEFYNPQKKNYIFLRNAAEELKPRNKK
UniProt P47736: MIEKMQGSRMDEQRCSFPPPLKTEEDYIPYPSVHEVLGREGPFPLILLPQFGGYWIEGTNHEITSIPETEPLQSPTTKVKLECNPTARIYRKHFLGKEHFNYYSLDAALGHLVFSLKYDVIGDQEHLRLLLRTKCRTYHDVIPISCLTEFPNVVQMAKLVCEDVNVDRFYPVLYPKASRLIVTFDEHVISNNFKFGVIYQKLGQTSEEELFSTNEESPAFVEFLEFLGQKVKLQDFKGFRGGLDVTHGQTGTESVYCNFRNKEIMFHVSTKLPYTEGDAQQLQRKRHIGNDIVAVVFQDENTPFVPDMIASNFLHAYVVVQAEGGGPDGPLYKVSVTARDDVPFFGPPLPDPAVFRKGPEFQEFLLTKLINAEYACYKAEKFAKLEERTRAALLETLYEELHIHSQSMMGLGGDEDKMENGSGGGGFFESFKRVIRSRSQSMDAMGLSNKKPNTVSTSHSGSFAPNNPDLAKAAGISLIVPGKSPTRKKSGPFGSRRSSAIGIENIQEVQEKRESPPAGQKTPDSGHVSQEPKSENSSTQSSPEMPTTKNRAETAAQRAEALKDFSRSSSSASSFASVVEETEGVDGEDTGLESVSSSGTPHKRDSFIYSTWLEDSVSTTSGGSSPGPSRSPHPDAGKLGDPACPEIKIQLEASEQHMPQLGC
UniProt P20338: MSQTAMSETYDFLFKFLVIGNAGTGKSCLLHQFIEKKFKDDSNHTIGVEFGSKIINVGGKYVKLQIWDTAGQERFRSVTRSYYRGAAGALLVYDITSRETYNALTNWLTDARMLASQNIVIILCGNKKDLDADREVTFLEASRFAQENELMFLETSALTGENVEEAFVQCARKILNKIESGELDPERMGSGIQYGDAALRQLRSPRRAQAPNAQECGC
UniProt Q8TDY2, whole entry, looked up: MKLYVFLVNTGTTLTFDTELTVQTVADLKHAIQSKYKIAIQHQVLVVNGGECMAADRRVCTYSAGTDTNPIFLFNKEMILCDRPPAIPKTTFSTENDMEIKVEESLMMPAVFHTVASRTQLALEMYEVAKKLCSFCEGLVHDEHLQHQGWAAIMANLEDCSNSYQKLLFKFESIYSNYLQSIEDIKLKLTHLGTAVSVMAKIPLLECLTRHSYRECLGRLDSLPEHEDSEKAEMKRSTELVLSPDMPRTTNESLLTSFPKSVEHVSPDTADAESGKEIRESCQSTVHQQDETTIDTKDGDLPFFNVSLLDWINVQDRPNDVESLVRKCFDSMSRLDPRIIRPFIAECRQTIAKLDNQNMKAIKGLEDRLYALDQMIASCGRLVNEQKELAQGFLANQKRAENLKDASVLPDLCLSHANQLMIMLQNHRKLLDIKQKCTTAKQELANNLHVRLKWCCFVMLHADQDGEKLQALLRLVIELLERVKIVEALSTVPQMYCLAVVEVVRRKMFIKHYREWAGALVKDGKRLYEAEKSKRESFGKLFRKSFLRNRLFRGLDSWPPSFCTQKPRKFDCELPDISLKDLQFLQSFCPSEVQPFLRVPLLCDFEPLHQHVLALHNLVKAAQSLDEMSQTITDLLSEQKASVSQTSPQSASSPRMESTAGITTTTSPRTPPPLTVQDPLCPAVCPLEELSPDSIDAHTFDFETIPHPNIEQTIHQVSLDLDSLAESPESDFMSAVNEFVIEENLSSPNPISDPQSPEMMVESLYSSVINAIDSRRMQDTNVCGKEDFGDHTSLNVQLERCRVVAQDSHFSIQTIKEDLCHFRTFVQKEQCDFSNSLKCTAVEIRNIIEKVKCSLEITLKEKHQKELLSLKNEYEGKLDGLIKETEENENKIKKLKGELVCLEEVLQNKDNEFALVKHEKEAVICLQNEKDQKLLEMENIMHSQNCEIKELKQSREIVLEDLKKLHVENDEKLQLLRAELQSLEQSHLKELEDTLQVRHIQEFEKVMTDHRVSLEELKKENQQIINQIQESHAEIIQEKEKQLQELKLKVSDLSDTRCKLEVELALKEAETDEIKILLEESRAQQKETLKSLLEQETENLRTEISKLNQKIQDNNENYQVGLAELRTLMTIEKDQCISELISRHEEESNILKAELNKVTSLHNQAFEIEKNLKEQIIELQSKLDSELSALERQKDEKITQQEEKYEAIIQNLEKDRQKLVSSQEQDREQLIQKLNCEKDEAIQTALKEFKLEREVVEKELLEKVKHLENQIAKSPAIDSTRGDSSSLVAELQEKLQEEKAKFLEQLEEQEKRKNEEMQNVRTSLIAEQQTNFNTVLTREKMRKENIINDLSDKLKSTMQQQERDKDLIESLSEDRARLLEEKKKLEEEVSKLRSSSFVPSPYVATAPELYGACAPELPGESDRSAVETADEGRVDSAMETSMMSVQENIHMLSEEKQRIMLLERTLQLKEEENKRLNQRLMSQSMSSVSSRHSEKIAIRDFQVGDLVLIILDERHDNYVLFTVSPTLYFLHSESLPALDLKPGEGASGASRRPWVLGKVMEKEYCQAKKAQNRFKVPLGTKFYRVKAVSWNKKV
UniProt Q5T160: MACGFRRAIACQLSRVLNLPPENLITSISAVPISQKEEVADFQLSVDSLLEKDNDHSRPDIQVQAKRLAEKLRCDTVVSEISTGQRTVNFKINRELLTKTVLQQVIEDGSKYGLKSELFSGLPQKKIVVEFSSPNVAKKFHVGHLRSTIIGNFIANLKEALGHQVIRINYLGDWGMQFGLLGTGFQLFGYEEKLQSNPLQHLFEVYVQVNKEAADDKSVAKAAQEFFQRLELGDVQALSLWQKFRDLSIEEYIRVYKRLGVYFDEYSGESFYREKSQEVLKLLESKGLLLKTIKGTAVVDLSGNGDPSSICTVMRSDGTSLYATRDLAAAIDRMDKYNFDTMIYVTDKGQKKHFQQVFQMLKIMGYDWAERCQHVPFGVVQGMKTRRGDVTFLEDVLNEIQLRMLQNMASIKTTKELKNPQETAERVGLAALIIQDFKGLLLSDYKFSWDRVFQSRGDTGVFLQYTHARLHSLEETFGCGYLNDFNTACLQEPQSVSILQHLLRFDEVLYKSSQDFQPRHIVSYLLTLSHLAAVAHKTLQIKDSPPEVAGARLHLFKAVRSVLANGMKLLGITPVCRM
UniProt P52306: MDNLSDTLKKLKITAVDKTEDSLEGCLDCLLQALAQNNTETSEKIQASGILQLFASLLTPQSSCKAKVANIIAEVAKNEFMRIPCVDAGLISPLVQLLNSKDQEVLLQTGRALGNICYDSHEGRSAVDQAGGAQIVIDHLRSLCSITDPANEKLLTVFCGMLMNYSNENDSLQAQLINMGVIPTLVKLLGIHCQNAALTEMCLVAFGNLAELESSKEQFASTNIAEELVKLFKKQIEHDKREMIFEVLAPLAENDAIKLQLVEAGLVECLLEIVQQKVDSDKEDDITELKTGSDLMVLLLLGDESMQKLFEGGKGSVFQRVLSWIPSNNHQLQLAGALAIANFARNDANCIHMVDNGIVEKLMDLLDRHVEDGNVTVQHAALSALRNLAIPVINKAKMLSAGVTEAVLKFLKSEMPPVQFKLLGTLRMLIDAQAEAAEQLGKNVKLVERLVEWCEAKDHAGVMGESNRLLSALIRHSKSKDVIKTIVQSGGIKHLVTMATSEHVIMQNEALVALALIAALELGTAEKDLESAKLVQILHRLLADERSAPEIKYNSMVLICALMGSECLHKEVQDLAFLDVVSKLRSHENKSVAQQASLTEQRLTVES

[2] = compound: CC1=C(SC2=C1C(=N[C@H](C3=NN=C(N32)C)CC(=O)N)C4=CC=C(C=C4)Cl)C
Method in brief: as §1

[3] = compound: CC1=C2C(=CC=C1)N=C(N(C2=O)C3=CC=CC=C3C)CN4C=NC5=C(N=CN=C54)N
Method in brief: as §1

[4] = compound: Cc1sc2c(c1C)C(c1ccc(Cl)cc1)=N[C@@H](CC(=O)OC(C)(C)C)c1nnc(C)n1-2
Method in brief: as §1

[5] = compound: c1ccc([C@@H]2C[C@H]2NC2CCNCC2)cc1
Method in brief: as §1

Measured: log2 fold change

RBBP7 isoform 2 (UniProt Q16576)
inactive: [1] 0.009 | [2] 0.041 | [3] 0.003 | [4] -0.017 | [5] -0.004

RAB43 (UniProt Q86YS6)
inactive: [1] 0.039 | [2] 0.062 | [3] 0.209 | [4] 0.011 | [5] -0.027

RAB29 (UniProt O14966)
inactive: [1] -0.011 | [2] 0.087 | [3] 0.11 | [4] 0.109 | [5] -0.088

RABIF (UniProt P47224)
inactive: [1] 0.045 | [2] 0 | [3] -0.059 | [4] -0.024 | [5] 0.111

RAB2B (UniProt Q8WUD1)
inactive: [1] -0.001 | [2] 0.033 | [3] 0.03 | [4] -0.035 | [5] 0.017

RBM17 (UniProt Q96I25)
inactive: [1] -0.038 | [2] 0.017 | [3] 0.049 | [4] 0.003 | [5] -0.013

RAD51D (UniProt O75771)
inactive: [1] -0.162 | [2] 0.244 | [3] 0.193 | [4] -0.222 | [5] -0.189

RABGGTB (UniProt P53611)
inactive: [1] -0.138 | [2] 0.112 | [3] -0.021 | [4] -0.04 | [5] -0.005

RAD21 (UniProt O60216)
inactive: [1] -0.008 | [2] 0.008 | [3] 0.021 | [4] -0.014 | [5] -0.009

RBBP4 (UniProt Q09028)
inactive: [1] -0.01 | [2] 0.013 | [3] 0.031 | [4] -0.046 | [5] 0.014

RAB8A (UniProt P61006)
inactive: [1] 0.052 | [2] -0.013 | [3] 0.027 | [4] -0.029 | [5] -0.066

RAB1B (UniProt Q9H0U4)
inactive: [1] -0.034 | [2] 0.009 | [3] 0.017 | [4] 0.01 | [5] 0.031

RAB14 (UniProt P61106)
inactive: [1] 0.032 | [2] 0.072 | [3] 0.064 | [4] -0.023 | [5] -0.016

RAE1 (UniProt P78406)
inactive: [1] -0.056 | [2] -0.029 | [3] -0.041 | [4] 0.06 | [5] -0.015

RAB4B isoform 2 (UniProt P61018)
inactive: [1] 0.029 | [2] 0.04 | [3] 0.027 | [4] -0.064 | [5] -0.003

RAP1GAP isoform 4 (UniProt P47736)
inactive: [1] -0.07 | [2] 0.098 | [3] 0.047 | [4] 0.039 | [5] 0.06

RABEPK (UniProt Q7Z6M1)
inactive: [1] -0.007 | [2] 0.033 | [3] -0.018 | [4] -0.031 | [5] 0.033

RAB4A (UniProt P20338)
inactive: [1] 0.055 | [2] 0.047 | [3] 0 | [4] 0.001 | [5] 0.008

RB1CC1 (UniProt Q8TDY2)
inactive: [1] 0.198 | [2] 0.096 | [3] 0.032 | [4] 0.029 | [5] -0.063

RARS2 (UniProt Q5T160)
inactive: [1] 0.021 | [2] 0.046 | [3] 0.044 | [4] -0.026 | [5] -0.007

RAB35 (UniProt Q15286)
inactive: [1] 0.022 | [2] 0.003 | [3] -0.011 | [4] 0.014 | [5] 0.045

RABGAP1 (UniProt Q9Y3P9)
inactive: [1] -0.026 | [2] 0.054 | [3] 0.072 | [4] 0.022 | [5] 0.004

RAB21 (UniProt Q9UL25)
inactive: [1] 0.012 | [2] 0.008 | [3] 0.022 | [4] -0.035 | [5] 0.011

RAP1GDS1 isoform 5 (UniProt P52306)
inactive: [1] -0.093 | [2] -0.01 | [3] 0.119 | [4] -0.001 | [5] -0.009

Quoted from the entries so far (6 entries):
RAB4A (UniProt P20338)
inactive: [1] 0.055 | [2] 0.047 | [3] 0 | [4] 0.001 | [5] 0.008

RB1CC1 (UniProt Q8TDY2)
inactive: [1] 0.198 | [2] 0.096 | [3] 0.032 | [4] 0.029 | [5] -0.063

RARS2 (UniProt Q5T160)
inactive: [1] 0.021 | [2] 0.046 | [3] 0.044 | [4] -0.026 | [5] -0.007

RAB35 (UniProt Q15286)
inactive: [1] 0.022 | [2] 0.003 | [3] -0.011 | [4] 0.014 | [5] 0.045

RABGAP1 (UniProt Q9Y3P9)
inactive: [1] -0.026 | [2] 0.054 | [3] 0.072 | [4] 0.022 | [5] 0.004

RAB21 (UniProt Q9UL25)
inactive: [1] 0.012 | [2] 0.008 | [3] 0.022 | [4] -0.035 | [5] 0.011
